Shown are results outside the selection of targets with a hit, which stands elsewhere. Single values of this set are uncertain. This is a selection; strong and weak results do not stand in their true shares.
compound: COC(=O)/C=C/c1ccccc1 [methyl cinnamate]; test: log2 ratio of iodoacetamide-alkyne labeling of the cysteine site, DMSO over compound (competition); higher = stronger covalent engagement of the cysteine by the compound, active = 1 or more; details: 500 µM; treatment time 1 h; system: HEK293T cell lysate
How it was run: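 Electrophile (500 µM) or vehicle was added to HEK293T lysate (2 mg/mL) for 1 h at ambient temperature before iodoacetamide alkyne labelling (1 h) and click coupling to sCIP-TMT reagents. After pooling, overnight trypsin digestion at 37 °C, streptavidin enrichment and acid elution, peptides were measured by Orbitrap Eclipse LC-MS/MS with FAIMS and quantified in FragPipe. Each cysteine's log2 competition ratio compares mean control-channel with mean compound-channel reporter intensity, control over compound. Data came from duplicate channels across three replicates, excluding cysteines quantified in only one replicate.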

Chains of the proteins cited; added tags and fusions are not shown. Lines headed by an entry give the natural chain unless they say otherwise; changes in a name come on top.
UniProt Q69YH5: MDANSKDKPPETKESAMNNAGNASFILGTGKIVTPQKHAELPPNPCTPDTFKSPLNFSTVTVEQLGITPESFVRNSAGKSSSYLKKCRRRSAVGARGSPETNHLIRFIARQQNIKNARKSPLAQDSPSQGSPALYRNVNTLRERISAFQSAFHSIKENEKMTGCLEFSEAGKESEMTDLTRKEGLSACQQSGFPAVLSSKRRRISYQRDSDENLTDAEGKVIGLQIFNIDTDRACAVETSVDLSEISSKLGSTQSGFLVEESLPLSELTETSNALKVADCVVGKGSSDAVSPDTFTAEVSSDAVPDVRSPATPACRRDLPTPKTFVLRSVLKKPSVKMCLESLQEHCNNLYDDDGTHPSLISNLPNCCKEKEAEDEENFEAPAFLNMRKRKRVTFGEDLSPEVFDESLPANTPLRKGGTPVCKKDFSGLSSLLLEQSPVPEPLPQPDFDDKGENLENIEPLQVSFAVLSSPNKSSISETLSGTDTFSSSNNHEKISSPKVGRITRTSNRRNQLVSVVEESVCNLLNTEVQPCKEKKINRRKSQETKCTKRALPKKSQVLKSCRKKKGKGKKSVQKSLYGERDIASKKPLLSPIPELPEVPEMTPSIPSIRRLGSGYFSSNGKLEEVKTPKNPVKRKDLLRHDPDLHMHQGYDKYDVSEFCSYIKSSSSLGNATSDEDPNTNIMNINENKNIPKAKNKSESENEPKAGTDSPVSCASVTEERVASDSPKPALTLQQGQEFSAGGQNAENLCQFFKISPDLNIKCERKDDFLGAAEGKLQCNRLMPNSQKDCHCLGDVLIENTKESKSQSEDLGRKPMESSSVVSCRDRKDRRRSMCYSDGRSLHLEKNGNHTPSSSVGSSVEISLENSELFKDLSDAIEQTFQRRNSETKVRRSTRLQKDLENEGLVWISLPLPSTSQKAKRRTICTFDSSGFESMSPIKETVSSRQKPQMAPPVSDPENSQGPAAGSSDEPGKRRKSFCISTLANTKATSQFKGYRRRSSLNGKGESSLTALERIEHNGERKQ
UniProt Q5F1R6: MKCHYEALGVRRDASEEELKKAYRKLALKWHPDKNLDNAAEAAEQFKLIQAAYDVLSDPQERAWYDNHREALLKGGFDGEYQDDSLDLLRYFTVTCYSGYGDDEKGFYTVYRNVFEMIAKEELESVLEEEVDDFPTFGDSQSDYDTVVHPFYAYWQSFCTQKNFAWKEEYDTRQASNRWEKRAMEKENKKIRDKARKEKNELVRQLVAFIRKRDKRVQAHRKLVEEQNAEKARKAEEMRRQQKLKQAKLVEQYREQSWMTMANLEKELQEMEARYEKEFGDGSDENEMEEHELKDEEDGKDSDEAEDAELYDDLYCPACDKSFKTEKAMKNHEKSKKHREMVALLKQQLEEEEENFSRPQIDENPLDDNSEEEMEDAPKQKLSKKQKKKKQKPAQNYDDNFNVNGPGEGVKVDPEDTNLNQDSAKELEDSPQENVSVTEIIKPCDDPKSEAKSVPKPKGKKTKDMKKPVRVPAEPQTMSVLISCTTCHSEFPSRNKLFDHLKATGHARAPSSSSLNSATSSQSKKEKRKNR
UniProt Q5JTV8: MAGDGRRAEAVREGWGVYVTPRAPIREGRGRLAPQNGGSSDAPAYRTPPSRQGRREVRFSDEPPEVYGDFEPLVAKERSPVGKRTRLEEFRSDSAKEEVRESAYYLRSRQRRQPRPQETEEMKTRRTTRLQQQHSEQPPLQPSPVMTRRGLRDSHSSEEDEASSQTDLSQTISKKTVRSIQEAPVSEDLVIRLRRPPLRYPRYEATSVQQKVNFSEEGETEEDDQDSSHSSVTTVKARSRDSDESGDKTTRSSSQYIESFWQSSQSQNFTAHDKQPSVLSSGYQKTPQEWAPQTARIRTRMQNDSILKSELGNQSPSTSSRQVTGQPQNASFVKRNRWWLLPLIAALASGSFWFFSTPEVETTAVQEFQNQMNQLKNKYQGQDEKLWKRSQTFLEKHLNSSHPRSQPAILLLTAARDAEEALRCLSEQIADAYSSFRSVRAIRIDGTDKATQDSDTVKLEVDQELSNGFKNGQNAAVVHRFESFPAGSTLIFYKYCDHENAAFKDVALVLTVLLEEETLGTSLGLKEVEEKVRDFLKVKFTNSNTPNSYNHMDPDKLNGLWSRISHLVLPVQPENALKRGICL
UniProt Q5UIP0: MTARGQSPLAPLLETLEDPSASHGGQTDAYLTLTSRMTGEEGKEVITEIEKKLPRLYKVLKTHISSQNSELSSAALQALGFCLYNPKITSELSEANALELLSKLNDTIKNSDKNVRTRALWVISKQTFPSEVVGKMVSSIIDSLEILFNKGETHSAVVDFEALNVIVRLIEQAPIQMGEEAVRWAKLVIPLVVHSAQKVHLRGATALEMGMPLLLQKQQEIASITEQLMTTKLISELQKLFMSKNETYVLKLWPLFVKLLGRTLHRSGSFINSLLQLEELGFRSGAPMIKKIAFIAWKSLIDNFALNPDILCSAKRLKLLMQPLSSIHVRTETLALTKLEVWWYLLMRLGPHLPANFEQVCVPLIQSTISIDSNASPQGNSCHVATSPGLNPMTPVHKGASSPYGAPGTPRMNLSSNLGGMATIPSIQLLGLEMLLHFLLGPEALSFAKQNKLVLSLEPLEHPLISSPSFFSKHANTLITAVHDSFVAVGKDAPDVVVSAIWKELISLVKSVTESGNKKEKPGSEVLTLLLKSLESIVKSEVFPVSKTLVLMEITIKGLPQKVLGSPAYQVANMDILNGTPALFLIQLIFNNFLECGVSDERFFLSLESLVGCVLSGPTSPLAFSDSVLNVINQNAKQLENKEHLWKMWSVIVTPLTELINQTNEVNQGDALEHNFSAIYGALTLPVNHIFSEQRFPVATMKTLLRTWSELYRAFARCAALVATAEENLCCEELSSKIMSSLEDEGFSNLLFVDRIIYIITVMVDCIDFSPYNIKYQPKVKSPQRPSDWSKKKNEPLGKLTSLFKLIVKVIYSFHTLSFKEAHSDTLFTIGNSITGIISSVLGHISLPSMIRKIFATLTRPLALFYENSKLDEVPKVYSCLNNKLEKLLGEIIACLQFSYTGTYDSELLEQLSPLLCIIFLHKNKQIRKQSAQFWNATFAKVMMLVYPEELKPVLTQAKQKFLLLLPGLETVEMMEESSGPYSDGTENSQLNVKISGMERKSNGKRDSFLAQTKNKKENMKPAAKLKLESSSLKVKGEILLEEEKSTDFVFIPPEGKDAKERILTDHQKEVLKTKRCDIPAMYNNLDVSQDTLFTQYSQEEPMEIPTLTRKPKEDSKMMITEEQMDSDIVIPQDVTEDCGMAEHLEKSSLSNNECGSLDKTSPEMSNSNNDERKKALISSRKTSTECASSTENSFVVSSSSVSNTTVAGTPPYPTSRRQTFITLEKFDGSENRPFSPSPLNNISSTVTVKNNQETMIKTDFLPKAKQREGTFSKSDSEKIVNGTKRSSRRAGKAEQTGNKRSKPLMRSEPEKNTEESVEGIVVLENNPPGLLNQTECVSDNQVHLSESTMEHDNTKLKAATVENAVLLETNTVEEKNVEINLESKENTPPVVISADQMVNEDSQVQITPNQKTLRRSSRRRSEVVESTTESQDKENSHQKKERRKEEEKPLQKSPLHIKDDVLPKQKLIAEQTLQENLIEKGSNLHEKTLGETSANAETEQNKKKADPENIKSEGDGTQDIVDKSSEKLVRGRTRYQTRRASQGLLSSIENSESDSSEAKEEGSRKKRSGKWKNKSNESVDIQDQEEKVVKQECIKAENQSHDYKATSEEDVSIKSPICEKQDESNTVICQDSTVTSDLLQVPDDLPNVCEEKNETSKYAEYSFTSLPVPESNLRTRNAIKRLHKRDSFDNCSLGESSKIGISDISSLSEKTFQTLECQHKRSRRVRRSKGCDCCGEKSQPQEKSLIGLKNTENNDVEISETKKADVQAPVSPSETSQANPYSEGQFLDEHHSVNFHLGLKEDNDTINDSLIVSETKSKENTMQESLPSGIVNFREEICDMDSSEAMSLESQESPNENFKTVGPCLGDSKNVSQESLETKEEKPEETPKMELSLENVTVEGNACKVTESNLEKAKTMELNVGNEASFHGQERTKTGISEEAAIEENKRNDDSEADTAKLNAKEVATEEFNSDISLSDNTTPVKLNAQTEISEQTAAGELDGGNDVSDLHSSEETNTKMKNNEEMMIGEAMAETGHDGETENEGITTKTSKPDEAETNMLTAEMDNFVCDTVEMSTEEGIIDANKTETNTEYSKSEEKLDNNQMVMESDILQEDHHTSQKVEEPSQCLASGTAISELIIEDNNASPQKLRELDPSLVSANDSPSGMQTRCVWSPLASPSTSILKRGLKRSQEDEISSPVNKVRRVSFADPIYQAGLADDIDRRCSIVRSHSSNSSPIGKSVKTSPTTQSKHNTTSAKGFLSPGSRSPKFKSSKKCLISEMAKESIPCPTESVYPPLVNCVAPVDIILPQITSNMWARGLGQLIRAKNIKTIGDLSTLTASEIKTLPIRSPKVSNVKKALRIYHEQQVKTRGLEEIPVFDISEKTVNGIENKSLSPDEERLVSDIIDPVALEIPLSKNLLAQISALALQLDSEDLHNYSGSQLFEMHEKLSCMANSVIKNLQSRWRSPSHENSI
UniProt Q5UCC4: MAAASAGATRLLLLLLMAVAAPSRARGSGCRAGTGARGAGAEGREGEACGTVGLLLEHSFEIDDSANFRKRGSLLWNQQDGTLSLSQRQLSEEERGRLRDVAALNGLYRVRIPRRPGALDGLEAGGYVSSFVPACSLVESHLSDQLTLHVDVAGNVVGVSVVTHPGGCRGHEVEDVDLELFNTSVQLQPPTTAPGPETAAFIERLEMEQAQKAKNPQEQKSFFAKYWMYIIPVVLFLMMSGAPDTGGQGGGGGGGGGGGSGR
UniProt Q5SNT2: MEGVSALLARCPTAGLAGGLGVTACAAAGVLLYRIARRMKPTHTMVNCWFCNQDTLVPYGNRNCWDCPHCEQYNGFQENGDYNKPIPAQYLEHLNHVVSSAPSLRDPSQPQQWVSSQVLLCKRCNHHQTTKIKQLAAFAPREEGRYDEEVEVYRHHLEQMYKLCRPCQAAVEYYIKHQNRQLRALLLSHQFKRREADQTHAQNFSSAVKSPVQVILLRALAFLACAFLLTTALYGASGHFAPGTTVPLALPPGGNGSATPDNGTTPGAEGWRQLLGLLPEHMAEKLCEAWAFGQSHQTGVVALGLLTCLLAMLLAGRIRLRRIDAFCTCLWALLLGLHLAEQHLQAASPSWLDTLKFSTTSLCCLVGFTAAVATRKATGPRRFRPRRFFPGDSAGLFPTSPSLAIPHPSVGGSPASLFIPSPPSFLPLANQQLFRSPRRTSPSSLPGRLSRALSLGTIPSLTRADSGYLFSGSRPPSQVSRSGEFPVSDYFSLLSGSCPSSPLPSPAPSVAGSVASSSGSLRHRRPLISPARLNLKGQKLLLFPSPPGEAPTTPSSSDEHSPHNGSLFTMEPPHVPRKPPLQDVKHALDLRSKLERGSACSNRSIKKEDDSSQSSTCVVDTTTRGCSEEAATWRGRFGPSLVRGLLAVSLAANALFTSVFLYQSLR
UniProt Q5VUJ6: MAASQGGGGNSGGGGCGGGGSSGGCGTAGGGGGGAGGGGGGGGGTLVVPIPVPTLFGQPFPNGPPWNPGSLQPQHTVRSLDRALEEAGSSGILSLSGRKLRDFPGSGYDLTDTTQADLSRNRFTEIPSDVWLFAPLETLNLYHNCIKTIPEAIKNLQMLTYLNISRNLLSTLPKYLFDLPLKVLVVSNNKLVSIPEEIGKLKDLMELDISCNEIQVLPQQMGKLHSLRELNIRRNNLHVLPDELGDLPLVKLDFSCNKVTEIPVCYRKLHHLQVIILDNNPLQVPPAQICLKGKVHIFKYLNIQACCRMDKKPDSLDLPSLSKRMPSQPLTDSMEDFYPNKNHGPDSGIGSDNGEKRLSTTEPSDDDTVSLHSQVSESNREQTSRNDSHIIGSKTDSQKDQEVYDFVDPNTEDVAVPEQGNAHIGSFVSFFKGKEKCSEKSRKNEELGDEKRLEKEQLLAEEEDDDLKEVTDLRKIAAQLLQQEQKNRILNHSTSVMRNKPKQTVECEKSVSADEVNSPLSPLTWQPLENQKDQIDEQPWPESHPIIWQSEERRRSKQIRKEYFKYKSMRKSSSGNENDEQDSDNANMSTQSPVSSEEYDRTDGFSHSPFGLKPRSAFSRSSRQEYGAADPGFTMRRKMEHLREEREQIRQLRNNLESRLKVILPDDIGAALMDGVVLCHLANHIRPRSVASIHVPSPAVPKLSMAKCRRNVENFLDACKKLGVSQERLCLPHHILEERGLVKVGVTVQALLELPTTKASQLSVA

log2 ratio of iodoacetamide-alkyne labeling, inactive:
CDCA2 C188 (UniProt Q69YH5) 0.307, ANKRD54 C185 (UniProt Q6NXT1) -0.0655, MAP1S C51 (UniProt Q66K74) 0.28, ZNF318 C1559 (UniProt Q5VUA4) 0.113, UniProt Q6S8J3_C972 0.225, MARC1 C273 (UniProt Q5VT66) -0.0159, DNAJC21 C444 (UniProt Q5F1R6) 0.0402, C15orf39 C367 (UniProt Q6ZRI6) 0.503, LARP1 C238 (UniProt Q6PKG0) 0.558, DOCK11 C409 (UniProt Q5JSL3) -0.429, GIGYF2 C289 (UniProt Q6Y7W6) -0.162, TOR1AIP1 C424 (UniProt Q5JTV8) 0.125, RIF1 C1077 (UniProt Q5UIP0) 0.294, DNAJC14 C537 (UniProt Q6Y2X3) 0.477, SPECC1 C493 (UniProt Q5M775) -0.0514, MTHFD1L C778 (UniProt Q6UB35) 0.301, UniProt Q5UCC4_C49 0.124, EDC4 C81 (UniProt Q6P2E9) 0.656, TMEM201 C626 (UniProt Q5SNT2) 0.346, UniProt Q6ZS17_C1137 0.107, UniProt Q5VUJ6_C145 0.12, UniProt Q5TAX3_C776 0.354
